The other results are listed elsewhere or left out.

Amino acid sequences for entries named in this document (tags omitted).
UniProt Q0JBA9, entry or part of it: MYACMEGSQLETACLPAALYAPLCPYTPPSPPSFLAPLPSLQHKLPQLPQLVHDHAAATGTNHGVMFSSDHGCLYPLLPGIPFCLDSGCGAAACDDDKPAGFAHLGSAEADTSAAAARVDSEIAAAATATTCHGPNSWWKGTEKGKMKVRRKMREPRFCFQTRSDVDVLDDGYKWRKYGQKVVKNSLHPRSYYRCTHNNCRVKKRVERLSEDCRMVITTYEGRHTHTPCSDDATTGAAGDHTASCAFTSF

The target of this assay is OsWRKY34 (Oryza sativa, UniProt Q0JBA9 1-250). In words: protein-binding microarray (RPBM); PBS, 2% BSA, 51.3 ng/ul salmon testes DNA, 50 uM zinc acetate, 200 nM TF, 25 C, 1 h; high values mean tight binding. Conditions: protein: recombinant; tags: N-terminal polyhistidine and DsRed monomer fusion (pET32a); label: CyDye5-dUTP incorporated in the synthesized complementary strand; 3' TTTTT single-stranded linker to array surface; dsDNA, one strand shown. The method, boiled down:
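Ni–NTA purification followed expression in E. coli BL21-CodonPlus of transcription factors fused N-terminally to a polyhistidine tag and DsRed. At 200 nM in PBS with 2% BSA, salmon testes DNA and 50 µM zinc acetate, the protein was incubated for 1 h at 25 °C with a custom Agilent array that had been primer-extended with Cy5-dUTP and blocked with 2% BSA. After washing, the array was read on an Axon 4000B scanner. The binding signal is per-feature fluorescence intensity in arbitrary units.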
On to “AGTTATTCCGGCCCACTAGTGATCCTCTCAATTTTACCGACGGAGTCACCTAGTGCAG”, for which the binding signal was 8250 fluorescence intensity (a.u.). As for “GAACGAACAACCGCGAACCTTCCTGCGGCTTTCTGATACACGGAGTCACCTAGTGCAG”, the figure is 8420 fluorescence intensity (a.u.). As to “CTGTTTATTGTTTATTACGTTCCATGCGAAAACTTTCTATCGGAGTCACCTAGTGCAG”, the binding signal was 11600 fluorescence intensity (a.u.). As for “CCTTTTCGTTTCTGTTTTTTTGAGATTTTTATTTAAATTTCGGAGTCACCTAGTGCAG”, the figure is 8140 fluorescence intensity (a.u.).

Consider “CTCAGTTGCCCGACTTACTATAACATTGATTGTTATGTCACGGAGTCACCTAGTGCAG”, for which the binding signal is 11000 fluorescence intensity (a.u.). To “CGCTATTCTCAATAATAAGGCAATGCCACACTGTAGTCAACGGAGTCACCTAGTGCAG” belongs 8200 fluorescence intensity (a.u.).

In the case of “AGCCTAGTACTACCTTCGTCCTAAATTAATGGTCGCTTTGCGGAGTCACCTAGTGCAG”, the binding signal was 8870 fluorescence intensity (a.u.). To “CAAAGTCGTGATCTATAGCCGTCCTCTTTCCGTTTGAATTCGGAGTCACCTAGTGCAG” belongs 8770 fluorescence intensity (a.u.). To “GATTGGTTGTTTGTTCTGTTTTGGACATGCTTGTTAATTACGGAGTCACCTAGTGCAG” belongs 17100 fluorescence intensity (a.u.); to “TAGTTTTCGCTTATTTGCAGCTAAATCCTCGGGTCCACATCGGAGTCACCTAGTGCAG”, 8900 fluorescence intensity (a.u.); to “AATGTTATGGGTTGGGACTGCTCTAAGACCGGTAGCTAGCCGGAGTCACCTAGTGCAG”, 9390 fluorescence intensity (a.u.). As for “TCTTCTTGAATTCTTGACTGCTTATCAGCTTATGTACTACCGGAGTCACCTAGTGCAG”, the figure is 9340 fluorescence intensity (a.u.); as for “GTTTTTTGTGTATACAAATTTCTTGTTGCTTTTGAACATCCGGAGTCACCTAGTGCAG”, 9930 fluorescence intensity (a.u.); as for “GCCCATCGCCACCGTCCACCGATCCAGCTGGCCGATCCTGCGGAGTCACCTAGTGCAG”, 9040 fluorescence intensity (a.u.). As for “CATTGGACTTTTGTTGGGCTATAGGTGTGGTTTTGATGGGCGGAGTCACCTAGTGCAG”, the binding signal was 11300 fluorescence intensity (a.u.). Take “AACCAGCCATATTATTATTTTGCTAATACACCGTATGACGCGGAGTCACCTAGTGCAG”: the binding signal is 8130 fluorescence intensity (a.u.). To “TCCATTTGATTACTCGTAACCATCTCCATTCTTTCATCCTCGGAGTCACCTAGTGCAG” belongs 8160 fluorescence intensity (a.u.); to “CCTGTTTCTCTCCTAGAATATCACGCAAACTCAACCCCACCGGAGTCACCTAGTGCAG”, 9620 fluorescence intensity (a.u.); to “TCACCGCTCCTTGCTTACAATGTTGATACACCACCTTACACGGAGTCACCTAGTGCAG”, 9300 fluorescence intensity (a.u.). “TGTTGCATTGATCGCATATACACGTAGCATCCGATAAATTCGGAGTCACCTAGTGCAG”: the binding signal is 9000 fluorescence intensity (a.u.). As for “CGAATTCTGTTATTCCCTTTGTAATATGTGGTTTTCACTACGGAGTCACCTAGTGCAG”, the binding signal was 8210 fluorescence intensity (a.u.).

As for “AAGTTTTCGCGTCCAACTTTCATCGTTCGTCTTATTTGAACGGAGTCACCTAGTGCAG”, the binding signal is 10600 fluorescence intensity (a.u.). For “CTCTCCTCCTTATCTCCAGTTCTCCACCCACCCACCCTCACGGAGTCACCTAGTGCAG”, the binding signal was 9290 fluorescence intensity (a.u.). As for “GAATTTTTTTTGCTTTCCGAAAAGAAACCCTGCTTATACCCGGAGTCACCTAGTGCAG”, the figure is 8930 fluorescence intensity (a.u.); as for “GGTATCAATGTCCAACGTTTGACTATCTGTCTTATTTGAACGGAGTCACCTAGTGCAG”, 10800 fluorescence intensity (a.u.); as for “CGCGATCCATCCATCCACCCGGCTCCCCACACACGAGAAACGGAGTCACCTAGTGCAG”, 8980 fluorescence intensity (a.u.).

Consider “GGTATATTTCATTATGTTGCATCTTATATTTTTCTTTCCACGGAGTCACCTAGTGCAG”, for which the binding signal is 8510 fluorescence intensity (a.u.). To “CTACGTTACACTGTGCGTGGCTTGTCTCTGCTCTATATGTCGGAGTCACCTAGTGCAG” belongs 8590 fluorescence intensity (a.u.). As for “TATCCTCCTGTGACCTCTCACCTATCGCAAGAACCCCAACCGGAGTCACCTAGTGCAG”, the binding signal was 9630 fluorescence intensity (a.u.).

Turning to “ACTCACTGTTGCCTGTTGGTTTGTTGTCAGTAGCGCTAGGCGGAGTCACCTAGTGCAG”, the binding signal is 8370 fluorescence intensity (a.u.). As to “TCGTAATCGACACACACTTCCACCACAGCCACCTACCATTCGGAGTCACCTAGTGCAG”, the binding signal was 8900 fluorescence intensity (a.u.). To “GCACCATCCTCCTCGTCGGCCGTTGACGTCTCCGATTCCACGGAGTCACCTAGTGCAG” belongs 8820 fluorescence intensity (a.u.). With “AAACACCAGCGCGGCCCTCGCCCTCGCCGTCGCCATTTCCCGGAGTCACCTAGTGCAG”, the binding signal was 8520 fluorescence intensity (a.u.). To “CCTGCTCCCGCCACGCCATTGCATCCATCCAATATCCATGCGGAGTCACCTAGTGCAG” belongs 8520 fluorescence intensity (a.u.); to “TTAATCATCGCTTTACTGTTTTGTTCCTGAACTCTGTAGCCGGAGTCACCTAGTGCAG”, 8170 fluorescence intensity (a.u.). To “ATTGTATTTCTATATAGACTCTGCCTTTTCTTTTTCTCCGCGGAGTCACCTAGTGCAG” belongs 9630 fluorescence intensity (a.u.); to “GTGTCATACCGCTGCTCCTTCTCTTTGCCTATTGCTCCTCCGGAGTCACCTAGTGCAG”, 10200 fluorescence intensity (a.u.). “AAAACCGTTTCTCCATCTTCCGATTTGCTCGCGCCGGTTGCGGAGTCACCTAGTGCAG”: the binding signal was 8060 fluorescence intensity (a.u.). As to “AACACACGCACAACATTTTTACGATGCTAGCAAACATTCTCGGAGTCACCTAGTGCAG”, the binding signal is 8200 fluorescence intensity (a.u.). For the sequence “ATAAATACACCCAAACCCTAACCCTAACCCTAGGATTCATCGGAGTCACCTAGTGCAG”, the binding signal was 8420 fluorescence intensity (a.u.). For the sequence “GCCTTTCATCACCCTTTACAAGTTTGACCTTTTCATGTCACGGAGTCACCTAGTGCAG”, the binding signal was 13600 fluorescence intensity (a.u.). To “GCCTACATATTCCCAACATCCAACTCTTCGTTTTTCCCATCGGAGTCACCTAGTGCAG” belongs 12300 fluorescence intensity (a.u.).

The values above are taken from paper PMC7819943, “Rice protein-binding microarrays: a tool to detect cis-acting elements near promoter regions in rice”.
